The other results are listed elsewhere or left out.

Amino acid sequences for entries named in this document (tags omitted).
UniProt Q0JBA9, entry or part of it: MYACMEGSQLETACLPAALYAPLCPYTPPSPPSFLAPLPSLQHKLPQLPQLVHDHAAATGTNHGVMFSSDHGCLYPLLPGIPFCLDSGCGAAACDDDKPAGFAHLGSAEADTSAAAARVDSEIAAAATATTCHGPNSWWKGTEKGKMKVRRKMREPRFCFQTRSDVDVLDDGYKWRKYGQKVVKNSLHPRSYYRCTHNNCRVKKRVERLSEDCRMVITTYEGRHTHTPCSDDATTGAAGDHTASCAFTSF

This test addresses OsWRKY34 (Oryza sativa, UniProt Q0JBA9 1-250). Put plainly: protein-binding microarray (RPBM); PBS, 2% BSA, 51.3 ng/ul salmon testes DNA, 50 uM zinc acetate, 200 nM TF, 25 C, 1 h; high values mean tight binding. Particulars: protein: recombinant; tags: N-terminal polyhistidine and DsRed monomer fusion (pET32a); label: CyDye5-dUTP incorporated in the synthesized complementary strand; 3' TTTTT single-stranded linker to array surface; dsDNA, one strand shown. A digest of the protocol: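 Transcription factors were made in E. coli BL21-CodonPlus as N-terminal fusions to a polyhistidine tag and DsRed, then purified on Ni–NTA. After primer extension with Cy5-dUTP and blocking with 2% BSA, a custom Agilent array was exposed for 1 h at 25 °C to 200 nM protein in PBS, 2% BSA, salmon testes DNA and 50 µM zinc acetate. Washed arrays were scanned on an Axon 4000B, and the binding signal is per-feature fluorescence intensity in arbitrary units.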
“CCCACATGTCAGCCTCACTCATCATCGGGTCCCGCATCACCGGAGTCACCTAGTGCAG”: the binding signal is 8160 fluorescence intensity (a.u.).
Regarding “CCTTGCTGTCATCTTACGTGCCCGTCCTAGCCTCTGACGACGGAGTCACCTAGTGCAG”, the binding signal was 8380 fluorescence intensity (a.u.).
In the case of “TCCGATGGATCCTTTTGTTGCGTTGTTGTCAACATTGCCACGGAGTCACCTAGTGCAG”, the binding signal is 8500 fluorescence intensity (a.u.).
Turning to “GCAGCAGCAGCAATCCTCTGATCATTCCTGTACACATACCCGGAGTCACCTAGTGCAG”, the binding signal was 8280 fluorescence intensity (a.u.).
Next, “CCGTTATACTCCTTCGGTTTCCGTTTCCGTTTCCGTTTCACGGAGTCACCTAGTGCAG”: 12900 fluorescence intensity (a.u.); “TTTTTTCCTTTTTTTTTCTTTTCTCACGCCCAATATCTCCCGGAGTCACCTAGTGCAG”: 8040 fluorescence intensity (a.u.); “ATAGAGCACTACTACCGCATAAAAGATTTGTACTGGTACACGGAGTCACCTAGTGCAG”: 8080 fluorescence intensity (a.u.).
As for “ACCACCACTCTCTTTTTGGCGCCTAATCGGCTAATCCCCTCGGAGTCACCTAGTGCAG”, the figure is 9880 fluorescence intensity (a.u.).
Next, “TCATATCTTTTGTTTTCTGCGCGCAAGCTTTCTAAACGGCCGGAGTCACCTAGTGCAG”: 10100 fluorescence intensity (a.u.).
For “ATTTTTACTCTTTGCTTCACACTACTTTTTTTGGGTTGATCGGAGTCACCTAGTGCAG”, the binding signal was 12400 fluorescence intensity (a.u.).
On to “GTCGGTGTCTCGTGTTTTCTGGCTGGCATACGATATTTCCCGGAGTCACCTAGTGCAG”, for which the binding signal is 8470 fluorescence intensity (a.u.).
For “CCTCGAAGCGACCCCGTCTCTCGCGAGTTCTCCCGTCGTCCGGAGTCACCTAGTGCAG”, the binding signal is 8420 fluorescence intensity (a.u.).
Next, “GTGGAGCTTTTTTTCTTGGTTGGGTGGGGATGAGTTCTTGCGGAGTCACCTAGTGCAG”: 16300 fluorescence intensity (a.u.).
Consider “CGCCCGCGTCAGCCCCGTCGTCGCCGGTCCGTCGCCGCCCCGGAGTCACCTAGTGCAG”, for which the binding signal is 8920 fluorescence intensity (a.u.).
As for “ATCCCTACCTATGCCGCTCGCCATCGTGATGGCCACCTCTCGGAGTCACCTAGTGCAG”, the figure is 10400 fluorescence intensity (a.u.); as for “GTCACATAGTAATATCTTCTTTCTTGCATTTGTCACTTCCCGGAGTCACCTAGTGCAG”, 8840 fluorescence intensity (a.u.).
As to “TTGACGCAGTTGCATCTGTCTTTCGTGTGGATTACTGGAGCGGAGTCACCTAGTGCAG”, the binding signal is 9210 fluorescence intensity (a.u.).
As for “CCCCACCACCTCATCGATCCGCGCCACCACCCAACCCACCCGGAGTCACCTAGTGCAG”, the figure is 10000 fluorescence intensity (a.u.); as for “TAGTCCCGGTCCTCACCATTGACCAAGGCTGACCTCAAGTCGGAGTCACCTAGTGCAG”, 9060 fluorescence intensity (a.u.); as for “CAGACATGCCCTTCTCTATCTTCCTTGGCCATCTCTGCCTCGGAGTCACCTAGTGCAG”, 8800 fluorescence intensity (a.u.).
For “CTAGACTTCTCCGGTATTATATAACATTAACTTCCCAGTTCGGAGTCACCTAGTGCAG”, the binding signal was 8280 fluorescence intensity (a.u.).
“ACGTGATAGCGGATCACAAAATTTTAAATGTTTCGTTGACCGGAGTCACCTAGTGCAG”: the binding signal was 9510 fluorescence intensity (a.u.).
As for “GGCCCTTTTTCCGAGCTTCTGGATGAACTGTCAGCATTTTCGGAGTCACCTAGTGCAG”, the figure is 12200 fluorescence intensity (a.u.); as for “GTTGCTTACTACCTGGTATTAGTCATTGTGGGAGTAGTTCCGGAGTCACCTAGTGCAG”, 8160 fluorescence intensity (a.u.).
As for “AAGCAGCAATCCACCACCATCATCGTCATCATAACGATCGCGGAGTCACCTAGTGCAG”, the figure is 8360 fluorescence intensity (a.u.).
In the case of “GTTGAGGGGATGGGATGGGATGGGATGGGACGAACTCACTCGGAGTCACCTAGTGCAG”, the binding signal is 10200 fluorescence intensity (a.u.).
Take “GTCACTTCTCCTTTTTTTTTGGCATGCAATAGACTTCCTTCGGAGTCACCTAGTGCAG”: the binding signal is 8780 fluorescence intensity (a.u.).
As to “TTCAACTGCATTATTGTGTTTTTATTTGGAATTTAGTGCCCGGAGTCACCTAGTGCAG”, the binding signal is 8380 fluorescence intensity (a.u.).
Next, “TTCCTCTTCACGTGACTGACATGTGGGCCCCACTCAGCCTCGGAGTCACCTAGTGCAG”: 8540 fluorescence intensity (a.u.); “GCTCCACCTACTCCGCTCCCCTCTGCTCGGCTGCTCCCATCGGAGTCACCTAGTGCAG”: 8470 fluorescence intensity (a.u.); “ACCCTACCGTTATCAACTGCTGCTTTCCTACTCCCTGTGGCGGAGTCACCTAGTGCAG”: 10900 fluorescence intensity (a.u.).
As for “ATTCTGGTTTGATTTCTAGCTAGTGATTGTCACTTCATTCCGGAGTCACCTAGTGCAG”, the binding signal was 8130 fluorescence intensity (a.u.).
Regarding “TGTTTAGATTGGTGTCATTTTAAATCATTCTATTTTTTTACGGAGTCACCTAGTGCAG”, the binding signal was 8500 fluorescence intensity (a.u.).
With “TACACCTGATCACTACAAATCTGTAGTCCGTTGCTTTTCTCGGAGTCACCTAGTGCAG”, the binding signal was 8480 fluorescence intensity (a.u.).
As for “CCTGACTTCTTTTTCGTCGCATCTGCTTCAGTAAGTCCAGCGGAGTCACCTAGTGCAG”, the figure is 10900 fluorescence intensity (a.u.); as for “GTGGTTTTGGGAGTTGAGGGATAGGTTATACCCGATTTTACGGAGTCACCTAGTGCAG”, 9840 fluorescence intensity (a.u.); as for “GAAAAATTGTCCCTTTTTATTTGGGAGGGGAGGGAGGAGGCGGAGTCACCTAGTGCAG”, 17100 fluorescence intensity (a.u.).
Next, “CTCCGAGGCCCGTTTATTACCAGCTTTCCTGAGCCCTACTCGGAGTCACCTAGTGCAG”: 8650 fluorescence intensity (a.u.).
Next, “GCCTCCGCCTCCACTCCACAACTCCGCCGCCGCCGCAATGCGGAGTCACCTAGTGCAG”: 9850 fluorescence intensity (a.u.); “CTACCGCCACGCCTTCGCCACCATCTCCATCGCACCCTTCCGGAGTCACCTAGTGCAG”: 8130 fluorescence intensity (a.u.).
With “AAATTGGTAATCCTTATCCTCTCACTCTCTCACTGTTTCGCGGAGTCACCTAGTGCAG”, the binding signal is 8710 fluorescence intensity (a.u.).
Next, “GCGGCCCATCACCTCTGACGGCTTCTAATGTATCGGCCCGCGGAGTCACCTAGTGCAG”: 8690 fluorescence intensity (a.u.).
As for “AAACGCTGTGGTGGGTGGTGGTGCGGATGGGGAGGTGTGGCGGAGTCACCTAGTGCAG”, the binding signal was 14100 fluorescence intensity (a.u.).
With “CTGATTTGCTCTCTCATCTTTATAAATATGAGCACTCGTCCGGAGTCACCTAGTGCAG”, the binding signal is 8790 fluorescence intensity (a.u.).
For “GGAGCGATGACGTTCTATACCTTCGGCCTTCGTTTGACCGCGGAGTCACCTAGTGCAG”, the binding signal is 10600 fluorescence intensity (a.u.).
As for “CCCAAATCCATCCAGCCCGTCGCCGCCCGCCGCCCGCCGCCGGAGTCACCTAGTGCAG”, the binding signal is 8860 fluorescence intensity (a.u.).
Next, “CAACCCCTTACTTCATCACCTACTCATGTCAACACATAGCCGGAGTCACCTAGTGCAG”: 8850 fluorescence intensity (a.u.); “TTGAGTCAGTTTTAATTTTATGTTTTGGTTTTAATCTATACGGAGTCACCTAGTGCAG”: 9420 fluorescence intensity (a.u.); “AAAGGAGCACAAGACCATGCATGCATGCTGCAGATTTTACCGGAGTCACCTAGTGCAG”: 8100 fluorescence intensity (a.u.).
Next, “TTTTCCATCACATCAAACTTTTCTACTCACGTAAACTTTTCGGAGTCACCTAGTGCAG”: 8440 fluorescence intensity (a.u.).
As for “TTCACCTTCTACACGGATTGCCTTGTCTATGTTTCCACTGCGGAGTCACCTAGTGCAG”, the figure is 10900 fluorescence intensity (a.u.); as for “TCAGCGGCGAGACTACTTCATCAATCTTGCCCGCCACCGCCGGAGTCACCTAGTGCAG”, 9300 fluorescence intensity (a.u.); as for “CGGTTGTTGGCGATTTGTCGACTCCCATCGGCTGATTTCACGGAGTCACCTAGTGCAG”, 9430 fluorescence intensity (a.u.).
For “TTTCGTTTACATATGTTTAGAACATATAGTGCATATGTTTCGGAGTCACCTAGTGCAG”, the binding signal was 8280 fluorescence intensity (a.u.).

The record behind these values is PMC7819943, “Rice protein-binding microarrays: a tool to detect cis-acting elements near promoter regions in rice”.
